From paper PMC3510509
Results are given in words; binding and its absence hold for the method and conditions named. Some results given as binding are weak or reduced against the parent protein; the word gives no strength.

Protein sequences, listed by entry. Tags and fused reporters are not part of them.
UniProt A0QNE0: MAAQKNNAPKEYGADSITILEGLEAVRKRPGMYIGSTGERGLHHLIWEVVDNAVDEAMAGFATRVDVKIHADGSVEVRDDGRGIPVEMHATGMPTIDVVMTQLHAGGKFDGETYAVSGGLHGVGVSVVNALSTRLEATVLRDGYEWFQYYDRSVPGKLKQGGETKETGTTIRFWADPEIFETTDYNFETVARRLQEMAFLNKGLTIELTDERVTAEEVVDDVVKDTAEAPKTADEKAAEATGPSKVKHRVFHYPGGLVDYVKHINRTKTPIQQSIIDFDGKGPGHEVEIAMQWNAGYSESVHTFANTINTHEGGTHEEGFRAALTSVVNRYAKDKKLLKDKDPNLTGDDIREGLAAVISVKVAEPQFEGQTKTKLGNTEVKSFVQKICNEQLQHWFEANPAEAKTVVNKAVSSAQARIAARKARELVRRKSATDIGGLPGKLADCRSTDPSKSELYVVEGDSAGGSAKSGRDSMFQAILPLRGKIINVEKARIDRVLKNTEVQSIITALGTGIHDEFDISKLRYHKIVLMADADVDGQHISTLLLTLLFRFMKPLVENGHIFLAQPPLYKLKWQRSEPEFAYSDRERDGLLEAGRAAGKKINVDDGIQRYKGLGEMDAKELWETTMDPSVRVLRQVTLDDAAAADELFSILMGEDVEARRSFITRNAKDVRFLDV

Columns and labels:
[1] = target: Escherichia coli DNA gyrase subunit A (GyrA) (E. coli) (UniProt P0AES4); test: SEC; gel filtration of interspecies subunit mixtures; data not shown; both purified
[2] = target: Escherichia coli DNA gyrase subunit A (GyrA) (E. coli) (UniProt P0AES4); test: cross-linking; glutaraldehyde; gyrase subunits mixed 1:1 in supercoiling reaction buffer, on ice 30 min, then cross-linked at 37°C for 30 min; products resolved on SDS-PAGE, silver stained; both purified

binding [1]: binds
binding [2]: binds
Substance: Mycobacterium smegmatis DNA gyrase subunit B (GyrB) (from UniProt A0QNE0 1-675)
